Structures can show the parent of a compound that is named as a salt. The list shows a part of the results. Repeats in this data set agree poorly, so a single value says little.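 FDA-approved drugs were each paired with colistin at one-eighth its MIC and screened against a multidrug-resistant, mcr-1-positive clinical E. coli isolate, with OD600 read after 24 h. Drug-free bacteria served as growth control, plain broth as blank. Combinations were active if OD600 dropped below 0.2.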

The subject of the test is Escherichia coli 42 (mcr-1-positive clinical isolate). Kind of test: OD600 after 24 h growth with compound plus colistin (absorbance units (OD600)); higher = more bacterial growth (less inhibition). The conditions noted are these: first compound 25 µM; colistin concentration 0.5 ug/mL; incubation time 24 h; 37 °C.

As for `CNCC[C@@H](Oc1ccccc1C)c1ccccc1` [Atomoxetine hydrochloride] + CCC(C)CCCC(=O)N[C@@H](CCN)C(=O)N[C@H](C(=O)N[C@@H](CCN)C(=O)N[C@H]1CCNC(=O)[C@H]([C@@H](C)O)NC(=O)[C@H](CCN)NC(=O)[C@H](CCN)NC(=O)[C@H](CC(C)C)NC(=O)[C@@H](CC(C)C)NC(=O)[C@H](CCN)NC1=O)[C@@H](C)O [colistin], the OD600 is inactive: 0.85. For `O=C(OC[C@H]1O[C@@H](OC(=O)c2cc(O)c(O)c(OC(=O)c3cc(O)c(O)c(O)c3)c2)[C@H](OC(=O)c2cc(O)c(O)c(OC(=O)c3cc(O)c(O)c(O)c3)c2)[C@@H](OC(=O)c2cc(O)c(O)c(OC(=O)c3cc(O)c(O)c(O)c3)c2)[C@@H]1OC(=O)c1cc(O)c(O)c(OC(=O)c2cc(O)c(O)c(O)c2)c1)c1cc(O)c(O)c(OC(=O)c2cc(O)c(O)c(O)c2)c1` [Tannic acid] + CCC(C)CCCC(=O)N[C@@H](CCN)C(=O)N[C@H](C(=O)N[C@@H](CCN)C(=O)N[C@H]1CCNC(=O)[C@H]([C@@H](C)O)NC(=O)[C@H](CCN)NC(=O)[C@H](CCN)NC(=O)[C@H](CC(C)C)NC(=O)[C@@H](CC(C)C)NC(=O)[C@H](CCN)NC1=O)[C@@H](C)O [colistin], the OD600 was inactive: 1.12. The value for `O=c1n(CCCN2CCN(c3cccc(Cl)c3)CC2)nc2ccccn12` [Trazodone hydrochloride] + CCC(C)CCCC(=O)N[C@@H](CCN)C(=O)N[C@H](C(=O)N[C@@H](CCN)C(=O)N[C@H]1CCNC(=O)[C@H]([C@@H](C)O)NC(=O)[C@H](CCN)NC(=O)[C@H](CCN)NC(=O)[C@H](CC(C)C)NC(=O)[C@@H](CC(C)C)NC(=O)[C@H](CCN)NC1=O)[C@@H](C)O [colistin] was inactive: 1.1.
